# Assay results reported in the supplement of paper PMC3334620.
# The full ranking holds about 33,000 sequences; the median of “E-score (-0.5 to 0.5)” is about -8e-05, and the highest 2% start at about 0.23. The list shows a part of the results.
# Target: T1, Nrg2 (UniProt P38082)
# T1 sequence: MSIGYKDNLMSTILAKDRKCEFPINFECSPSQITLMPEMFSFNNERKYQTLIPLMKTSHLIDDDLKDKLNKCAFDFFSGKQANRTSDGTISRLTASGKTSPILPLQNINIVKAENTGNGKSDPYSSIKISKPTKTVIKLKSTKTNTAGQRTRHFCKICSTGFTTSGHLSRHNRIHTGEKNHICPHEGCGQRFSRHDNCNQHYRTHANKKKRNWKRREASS
# Assay: PBM E-score (8-mer binding enrichment) (E-score (-0.5 to 0.5)); higher = stronger / more preferred TF binding
# Settings: protein concentration: 100 nM; construct: GST-full length
# Procedure, shortened: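 Full-length yeast transcription factors or their DNA-binding domains, GST-tagged and expressed with PURExpress, were applied at about 100-200 nM to universal all-10-mer Agilent arrays. These arrays had been made double-stranded by primer extension on fresh or once-stripped slides. Detection used fluorescent anti-GST, normalisation used masliner, and E-scores for ungapped eight-base words pooled with reverse complements came from the Universal PBM Analysis Suite.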
row,Sequence,PBM E-score
1,GAAAGGCC,-0.0594
2,CAAAACAG,0.0581
3,CCTTACTC,0.138
4,AGGCGGAT,0.0209
5,GCGGTGGA,0.136
6,CACTTCTC,-0.0526
7,ATTGCGAC,0.198
8,CGGCTGAG,-0.0583
9,CTCCCGAG,-0.218
10,AGCTTATC,-0.0335
11,CGAGTGCA,0.0846
12,CTCGTAAG,0.0943
13,GCATGTAC,0.0645
14,GGTGAGCA,-0.223
15,CATAGCAA,0.0247
16,CGGTACCA,-0.18
17,CTTTACGA,-0.192
18,ATATTAAA,0.29
19,CCTGAAGC,-0.221
20,TGTTAAAA,-0.0704
21,AAAAAGGA,0.0662
22,TAAGGTGA,-0.0318
23,AAGTCCTG,-0.0665
24,ACGCAGGC,-0.201
25,CGAAGTAG,0.0892

row,Sequence,PBM E-score
1,CCTAGGCA,-0.0703
2,CAGTAAAC,-0.0747
3,ATGTACTG,0.0724
4,ACGTTAGC,0.0712
5,CTCAGGTA,-0.0666
6,ACGGCTCC,-0.0024
7,GAGGCCTC,-0.327
8,ACAACGAC,-0.0262
9,ATTAATAC,0.223
10,ACGATCTC,-0.0267
11,ATACGGAC,-0.0987
12,AAGAAAAC,0.0677
13,ATATCGAA,0.211
14,CTATGTCC,0.0087
15,CCTGGTTC,-0.00734
16,AAGGTTCT,0.0402
17,CAGACGTC,-0.243
18,CAGAAATC,0.0356
19,CGCGAATA,0.183
20,ACCCACAG,-0.111
21,CGATTTTA,0.194
22,CCGTGAAC,-0.021
23,ACGATTTC,0.0712
24,AGATCGAT,0.139
25,AGAAAATC,0.0379

row,Sequence,PBM E-score
1,CAGCGGGA,0.0638
2,AGTCTCTG,-0.193
3,ATCAAGTC,0.0581
4,ACACACCG,-0.115
5,AGGAAAAA,-0.101
6,TATTAGAA,0.249
7,ACCCTAAA,0.161
8,GCCGCAAA,0.157
9,GTATACTA,-0.0179
10,GCAGGTAC,-0.17
11,ACCATGGG,-0.0447
12,CCCATGGG,0.323
13,AGAAGCAT,0.0357
14,AATACCTA,0.144
15,TCAAGAAA,0.145
16,CGTAATGC,-0.023
17,AAAGCGAT,0.0772
18,CGCTACAG,-0.103
19,ATGCTACC,0.0188
20,TCCGGTAA,-0.0902
21,CACCAAGG,-0.0415
22,GAGAAAAA,0.0431
23,ATTCGATA,0.0763
24,CAAGACGC,-0.0198
25,GGAAAAAA,-0.11

# Shown with bars between the fields: entries from further up.
row | Sequence | PBM E-score
10 | GCAGGTAC | -0.17
13 | AGAAGCAT | 0.0357
14 | AATACCTA | 0.144
18 | CGCTACAG | -0.103
23 | ATTCGATA | 0.0763

# Looked up one by one from the entries so far:
row,Sequence,PBM E-score
4,ACACACCG,-0.115
18,CGCTACAG,-0.103

# The list continues.

row,Sequence,PBM E-score
1,AATCCCGA,0.193
2,ATAATGCA,0.0348
3,ATAGTTCA,0.0512
4,ACATTTCA,0.0192
5,GCCGGAAC,-0.00319
6,AGTTGCAT,0.165
7,ACACCCGG,-0.141
8,CGTGGAAA,0.173
9,ACAGCAAA,0.0135
10,ACATACAT,0.212
11,CTTGCTCA,-0.151
12,AATATGGG,-0.0279
13,AGAGCATA,-0.0894
14,CGCAGCAC,-0.0909
15,GCTCGGAC,-0.0396
16,ATTCTTGC,0.0743
17,CGTCTGCC,-0.155
18,GTCCACAC,0.101
19,CTGGAATA,0.193
20,ACTGAGTA,0.0363
21,GATATATC,0.0168
22,AAGACCAG,0.038
23,AACTACGC,0.0487
24,GAGCGCCA,-0.0395
25,CGTTTAGA,-0.0654

row,Sequence,PBM E-score
1,CACCGCAG,0.0838
2,ACTCCATA,-0.034
3,ATAGCCGC,-0.118
4,CGTCGACC,0.069
5,ACGGCGCG,0.214
6,CACGTTGG,-0.135
7,GTAGCAAC,0.105
8,AACAGGCA,-0.0487
9,CTTACACA,-0.0537
10,GTCACCCA,-0.136
11,AAGTGACC,-0.0854
12,ATGTTGGC,0.137
13,CGAAGGCA,-0.237
14,CGCGTCAC,-0.0169
15,CTCTTGGC,-0.189
16,CCTTTGAC,-0.14
17,GAAGCTGC,0.0537
18,CCAACTTA,0.101
19,GCCATTGA,0.13
20,ATTTCAGG,0.189
21,AAGACTAA,0.0215
22,GTTTAAAA,-0.0216
23,AATGTGAG,-0.0032
24,TGATGGAA,-0.0232
25,ATGTCACA,0.14

row,Sequence,PBM E-score
1,AGCAGCCG,0.0537
2,AGAATGCG,0.0659
3,ATCTCGCA,0.0354
4,TCAGCCAA,0.00064
5,ATTAAACG,0.129
6,CGACTGCC,-0.187
7,GACCTTCA,-0.0984
8,ACAGCTCG,-0.0529
9,ACAGGCGA,-0.0225
10,CTAGTAAA,0.122
11,CTGGCTTC,-0.201
12,ACGAAAAC,0.139
13,CTATCGTC,-0.115
14,CAAAACTG,0.116
15,ATCCCAAC,0.034
16,AAGCGGCT,0.0578
17,AAAGTCGT,-0.00649
18,ACATGCCG,0.0126
19,TATGGGGA,0.283
20,AAGGACGT,-0.135
21,ATCATAGA,0.238
22,ATCGGTAC,0.00733
23,TAGCGCTA,-0.0709
24,AATCGAGC,0.134
25,ACACCAAG,-0.0382

row,Sequence,PBM E-score
1,CTGACGGA,-0.131
2,CCAAGGGA,0.178
3,ACCGACGC,-0.262
4,CCGCGTAC,-0.0606
5,AACTTCTG,-0.0749
6,CCTTCACA,0.00895
7,CACGGCGA,0.0616
8,TCCTGGAA,-0.107
9,GATGTATA,0.124
10,ACTACTCC,0.00907
11,CCCACACC,0.115
12,GGTGTTCA,-0.176
13,AGGTGACC,-0.0318
14,CGAGCTGA,0.243
15,AGCAGCAT,-0.146
16,ACTTTTGC,-0.0259
17,ACCTGTTA,-0.199
18,CTCACCGA,-0.00873
19,GTACCTAC,-0.00923
20,AGACTAGC,-0.208
21,CTAGCGTA,-0.312
22,AAGTTGCT,-0.0399
